In all, about 33,000 sequences were measured (“E-score (-0.5 to 0.5)”: median about -0.015, highest 2% from about 0.3 on). The list shows a part of the results.
Each sequence was assayed against T1, Abf1 (UniProt P14164) (assay: PBM E-score (8-mer binding enrichment) (E-score (-0.5 to 0.5)); higher = stronger / more preferred TF binding). Settings: protein concentration: 200 nM; construct: GST-full length.
T1 sequence: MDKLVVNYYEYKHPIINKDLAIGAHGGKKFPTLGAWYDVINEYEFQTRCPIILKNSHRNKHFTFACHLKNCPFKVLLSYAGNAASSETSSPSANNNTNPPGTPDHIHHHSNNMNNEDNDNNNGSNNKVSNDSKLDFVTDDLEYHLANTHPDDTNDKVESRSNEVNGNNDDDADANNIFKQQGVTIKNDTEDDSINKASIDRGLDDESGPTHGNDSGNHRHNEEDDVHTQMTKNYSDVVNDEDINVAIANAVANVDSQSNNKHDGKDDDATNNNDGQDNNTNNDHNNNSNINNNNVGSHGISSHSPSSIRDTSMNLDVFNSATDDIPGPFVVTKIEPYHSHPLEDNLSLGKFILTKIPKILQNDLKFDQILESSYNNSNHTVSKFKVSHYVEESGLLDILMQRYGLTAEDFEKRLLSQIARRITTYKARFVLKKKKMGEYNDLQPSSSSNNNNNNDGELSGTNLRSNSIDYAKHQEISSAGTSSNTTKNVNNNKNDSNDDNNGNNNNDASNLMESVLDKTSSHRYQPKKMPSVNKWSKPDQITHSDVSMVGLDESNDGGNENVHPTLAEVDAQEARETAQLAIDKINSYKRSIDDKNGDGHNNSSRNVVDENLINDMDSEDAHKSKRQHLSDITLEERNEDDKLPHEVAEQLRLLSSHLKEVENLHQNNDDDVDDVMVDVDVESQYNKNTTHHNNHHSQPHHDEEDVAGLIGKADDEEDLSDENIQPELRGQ
Procedure, shortened: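 The E-score, a modified Wilcoxon-Mann-Whitney statistic, was computed by the Universal PBM Analysis Suite for every ungapped eight-base word pooled with its reverse complement. Scans behind it were normalised with masliner after bound GST-tagged yeast transcription factors were detected with fluorescent anti-GST. The proteins, at about 100-200 nM, had been applied to universal all-10-mer Agilent arrays made double-stranded by primer extension.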

Sequence	PBM E-score
GCGCGGAA	-0.12
CAGTGAAC	-0.016
GATAAGAC	0.0408
GTAACCAA	0.114
ACTTTCAA	0.159
GACGTAAA	0.199
GCCTGCGC	-0.167
ACACCGGA	-0.0729
CCATTCTA	0.0476
AGTACCTG	0.0482
ACGCGGCT	-0.0744
AGCTACAT	0.118
CGAAAATC	0.231
TATCGTCA	0.33
ACTTCGTG	0.0796
CATTGCCA	0.095
CCACTCCA	-0.316
CGAGATCA	0.262
CTTCGGGA	-0.0152
CCGCGTGA	0.116
TCAAGCAA	0.0828
AGCCGACG	-0.0935
AAGCGATT	0.0803
CCATAGTC	-0.138
ACAATGGT	-0.215

Six entries picked at random from the list so far, as already listed:
Sequence	PBM E-score
ACAATGGT	-0.215
ACTTCGTG	0.0796
ACTTTCAA	0.159
CGAAAATC	0.231
CCACTCCA	-0.316
CCATTCTA	0.0476

Next part.

Sequence	PBM E-score
GAATGGTC	0.0192
CCCGTCCA	0.152
AGACCTCG	0.00988
GATAAGTA	0.188
ACCTGTAC	0.0101
ATTCCAGG	-0.0919
AACCCCAA	-0.155
GATCCGCA	-0.106
CCCGCATC	-0.1
CCAGGGTC	-0.217
AGGCTGTC	-0.105
TACGGCAA	0.301
CCTGACAA	-0.064
CGAACGAC	0.273
CTATGCGC	-0.0302
AGCTCCTA	-0.253
TCTCGCAA	-0.0498
GAGCATCA	-0.154
GAGGGCTA	-0.144
TCTGATCA	0.155
AGTAAGCA	-0.129
CAACCTTC	-0.0626
GCTTTTCC	-0.0849
AAAGTACA	0.0707
ACTTTGAT	0.0527

Sequence	PBM E-score
GAGTGTTA	0.0138
GGTGCTGA	0.0492
AAAAATAG	0.131
AATGGTAC	-0.00546
AGCCGTCC	0.0251
ACATCCAC	0.084
GGCACTAA	-0.0676
CGGCAAGA	0.109
ACGGTGCT	0.0582
CCGGGTCG	-0.0489
CGACGCGA	-0.0138
GGCTCAGA	0.00214
GGCATCCC	-0.0701
ACCGGATG	-0.0378
AGGATGAT	0.284
AGCCCACT	-0.0922
ACCCGATA	0.108
CGGCGCGA	0.1
CCACACAA	-0.257
CGTGGTGA	0.14
ACTAGCAA	-0.0621
CATCCAGA	-0.0615
GTCGTAGA	0.278
AGCCCCCT	-0.225
GCTGGTAC	0.0196

Sequence	PBM E-score
CCACGCCA	-0.172
CTTGTAGC	-0.2
ACGCGGAC	-0.0498
GGATGTCA	0.171
CCGTGAGA	0.171
CTCTGCTA	-0.157
ACGCAGTA	-0.106
ATCTTGCG	0.0144
ATGCTCAA	-0.0189
CACGTTTC	-0.0663
ATCACTGG	0.332
CAGTCGCG	0.033
GGACACAA	0.0272
CCTACCAC	-0.171
ATAGCGGG	-0.151
CATCATAG	-0.00083
ATGGGAAC	-0.0942
CCCTATCG	-0.234
ATTCCGAA	0.0789
CACGGAAC	0.214
CGTCCTTC	0.0157
TCTAGCAA	-0.0335
AGAAAGGC	-0.114
CGTATAGA	0.295
GCATCTAA	0.0436

Sequence	PBM E-score
ACTTAGTC	-0.0355
GTGTTAAC	-0.0374
TCGTAGCA	0.256
CGCCCACC	-0.127
TATAGTGA	0.236
ACTTAAAT	0.0333
ACTGTAAG	-0.00033
ACTTAGAC	0.151
GCCCTACA	-0.0753
ATAAAGAT	0.0897
AGCTTGTA	-0.2
GGAGAGAC	-0.0713
AATCGAAT	-0.016
GACTAGCA	-0.0701
GCGGCAGC	-0.18
TAACTATA	-0.0578
GCCCAGGA	-0.147
CTATAATC	0.132
CTGCCGCA	-0.0733
CTTTAGAA	0.0749
ACGTAGGA	0.196
ACGCTGTA	0.0495
GGCGAAAA	0.00612
AGCAGAGA	-0.186
ACGAAATG	0.209

Sequence	PBM E-score
AATGCCGA	-0.0292
CACCCGAA	0.0712
GTCGTCGA	0.215
AGCGCCGC	-0.233
CCGAGCAC	-0.0613
AGAAGGCA	-0.218
GAAGTCCA	-0.124
GCATTTAA	0.122
CCATCGCG	0.146
CACATCAG	-0.142
GGGTAGTA	-0.143
ATTAGTCG	0.122
AGTACGCC	0.0999
ACGGTCTC	0.125
CCTAACAC	0.0708
ACTCCCTA	-0.0578
CGGCTTAG	-0.213
AAGGACAA	0.0178
AATTTGTG	0.0205
AAACTTCT	0.211
GGCAAGCC	-0.2
GCGTATTA	-0.114
GTAGCGCA	-0.0713
TAGCGCAA	0.0533
CTGGGACA	0.0673

Sequence	PBM E-score
AACGCACT	-0.0121
CCGGCTAA	-0.0565
AATTACAA	0.139
AACATAAA	0.0752
GGGGACGA	0.135
AGATTTAT	0.134
ACAACACG	-0.043
CCATACGG	0.281
TTAGGCAA	-0.144
ATCACTCA	0.369
GGGAGCGA	-0.0269
GATCTAAA	0.0194
ACTAGAGG	-0.3
GATACTCA	0.156
GACTCGCC	-0.124
CCGAGTGA	0.201
GCTTAGCC	-0.218
CATCTGGG	-0.0859
GGGATGCA	-0.183
ACAATCTA	0.0679
ATCTACCG	0.0808
TGACTGAA	0.00356

An excerpt of these results, in markdown.

| Sequence | PBM E-score |
| --- | --- |
| AGATTTAT | 0.134 |
| ACAACACG | -0.043 |
